The source of these data is publication PMC6204060.

Sequences of proteins named here, by UniProt entry; tags and fusion partners are left off.
UniProt Q38931: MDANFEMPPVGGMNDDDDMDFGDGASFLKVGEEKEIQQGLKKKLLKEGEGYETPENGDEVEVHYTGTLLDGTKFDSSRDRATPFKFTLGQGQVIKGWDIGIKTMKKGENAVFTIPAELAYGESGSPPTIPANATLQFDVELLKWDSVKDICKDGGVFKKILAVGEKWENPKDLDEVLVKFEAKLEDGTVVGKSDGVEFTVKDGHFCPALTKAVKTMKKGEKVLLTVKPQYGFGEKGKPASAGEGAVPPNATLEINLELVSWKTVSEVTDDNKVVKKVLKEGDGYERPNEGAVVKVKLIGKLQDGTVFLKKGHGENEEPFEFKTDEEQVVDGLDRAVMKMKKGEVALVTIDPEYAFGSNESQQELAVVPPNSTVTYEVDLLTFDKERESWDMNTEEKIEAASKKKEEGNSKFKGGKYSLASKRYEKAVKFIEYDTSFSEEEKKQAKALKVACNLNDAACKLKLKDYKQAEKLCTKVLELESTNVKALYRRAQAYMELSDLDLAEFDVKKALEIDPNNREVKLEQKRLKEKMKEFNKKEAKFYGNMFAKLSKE

No constants are given. Whether binding was seen depends on the method and setting. Tags and fused reporters may be left off the sequences shown.

This test deals with T1, BD-AtBI-1 (full-length Arabidopsis Bax inhibitor-1 in pGBKT7) (Arabidopsis (Arabidopsis thaliana)) (UniProt Q9LD45).
T1 sequence: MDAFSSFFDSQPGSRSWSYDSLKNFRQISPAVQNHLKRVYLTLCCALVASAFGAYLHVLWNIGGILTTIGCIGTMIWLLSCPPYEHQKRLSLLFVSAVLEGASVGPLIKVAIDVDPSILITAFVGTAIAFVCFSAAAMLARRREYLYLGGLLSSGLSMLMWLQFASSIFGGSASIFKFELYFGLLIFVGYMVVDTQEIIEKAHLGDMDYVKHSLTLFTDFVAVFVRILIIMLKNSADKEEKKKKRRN
The experiment in a line: two-hybrid; pairs of BD (pGBKT7) and AD (pGADT7) fusions coexpressed in AH109 yeast cells; selected on SD/-Trp-Leu-His-Ade or SD/-Trp-Leu-His-Ade/X-alpha-gal medium for 5 days.

Take “AD-ROF1 (full-length Arabidopsis AtFKBP62 in pGADT7) (from UniProt Q38931 1-551)”: the binding entry is “no binding”.
